Experimental data: patent publication US20160257744A1
Results are given in words; binding and its absence hold for the method and conditions named. Some binding calls cover weakened binding; strength is not graded here.

Sequences of proteins named here, by UniProt entry; tags and fusion partners are left off. Residues count along the entry.
UniProt P05113, residues 20-134: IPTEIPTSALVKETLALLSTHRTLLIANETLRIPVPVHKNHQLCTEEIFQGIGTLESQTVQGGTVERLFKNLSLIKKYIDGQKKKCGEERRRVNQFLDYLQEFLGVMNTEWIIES

Biological target: interleukin 5 (IL5) (human) (UniProt P05113)
Assay: ELISA: biotinylated IL5 receptor α on immobilized IL5, streptavidin-HRP

B1: IL5 receptor α (receptor, UniProt Q01344 21-335, looked up)
chain: DLLPDEKISLLPPVNFTIKVTGLAQVLLQWKPNPDQEQRNVNLEYQVKINAPKEDDYETRITESKCVTILHKGFSASVRTILQNDHSLLASSWASAELHAPPGSPGTSIVNLTCTTNTTEDNYSRLRSYQVSLHCTWLVGTDAPEDTQYFLYYRYGSWTEECQEYSKDTLGRNIACWFPRTFILSKGRDWLAVLVNGSSKHSAIRPFDQLFALHAIDQINPPLNVTAEIEGTRLSIQWEKPVSAFPIHCFDYEVKIHNTRNGYLQIEKLMTNAFISIIDDLSKYDVQVRAAVSSMCREAGLWSEWSQPIYVGNDE
In the case of B1, the binding is reported as “binds”.
